Values from PubChem BioAssay AID1224830 (NIAID, 2016)
This is a random part of about 18,000 deposited reagents. Over the whole deposit, about 2,900 (16%) are marked active. 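Calls are made per well; low scores hint the gene aids the LPS response, high scores that it dampens it.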 Repeated entries: four replicate wells of each siRNA pool.

Purpose: 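Regulators of TLR4 signalling towards TNF-alpha in macrophage-like cells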 (primary screen)
System: human THP-1 monocytic leukaemia cells, TNF dual-luciferase reporter clone, PMA-differentiated to macrophage-like cells
Reagents: siRNA pool against human genes, 50 nM
Duration: LPS for 4 h, given about 3 days after siRNA transfection
Conditions: bacterial LPS (TLR4 ligand), 10 ng/ml
Measured: 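Ratio of firefly to renilla light, scaled to the plate median and expressed as a robust z-score per replicate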
Reading the numbers: TNF reporter robust z-score: higher = stronger TNF reporter response to LPS
Hit rule: 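a well is active when its z-score exceeds 2.8 or falls below -1.5; control wells carry no call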

Silencing of RLN1 came out at: inactive.
RLN1 gave TNF reporter robust z-score 0.14; inactive.
Depletion of RLN1 came out at: TNF reporter robust z-score 0.04; inactive.
Against RLN1 the deposit lists TNF reporter robust z-score -0.02; inactive.
Depletion of RLN1 came out at: TNF reporter robust z-score -0.85; inactive.
After knock-down of OR5M9, the screen gave TNF reporter robust z-score -1.79; active.
Silencing of OR5M9 gave: TNF reporter robust z-score -1.29; inactive.
OR5M9 gave TNF reporter robust z-score -1.66; active.
Knock-down of OR5M9 came out at: TNF reporter robust z-score -1.77; active.
Depletion of IL9R gave: TNF reporter robust z-score 0.3; inactive.
IL9R gave TNF reporter robust z-score 0.95; inactive.
Depletion of IL9R came out at: TNF reporter robust z-score 0.22; inactive.
With knock-down of IL9R the results were TNF reporter robust z-score 1; inactive.
SOX2 scored TNF reporter robust z-score 0.33; inactive.
Silencing of SOX2 resulted in: TNF reporter robust z-score 0.74; inactive.
Depletion of SOX2 resulted in: TNF reporter robust z-score 0.58; inactive.
After knock-down of SOX2 the results were TNF reporter robust z-score 0.72; inactive.
Depletion of ANKMY2 came out at: TNF reporter robust z-score -0.52; inactive.
ANKMY2 gave TNF reporter robust z-score -0.08; inactive.
ANKMY2 showed TNF reporter robust z-score -0.49; inactive.
ANKMY2 gave TNF reporter robust z-score 0.7; inactive.
Silencing of MMP11 resulted in: TNF reporter robust z-score -1.24; inactive.
Silencing of MMP11 resulted in: TNF reporter robust z-score -0.44; inactive.
MMP11 gave TNF reporter robust z-score 1.01; inactive.
MMP11 scored TNF reporter robust z-score 2.01; inactive.
Against NBPF14, the entry reads TNF reporter robust z-score -1.03; inactive.
Against NBPF14, the entry reads TNF reporter robust z-score -0.68; inactive.
After knock-down of NBPF14, the record shows TNF reporter robust z-score -0.64; inactive.
For NBPF14, the entry reads TNF reporter robust z-score -0.59; inactive.
With knock-down of TGM5, the record shows TNF reporter robust z-score -1.44; inactive.
Depletion of TGM5 gave: TNF reporter robust z-score -1.26; inactive.
TGM5 scored TNF reporter robust z-score -1.34; inactive.
After knock-down of TGM5, the record shows TNF reporter robust z-score -1.37; inactive.

No new results follow: 3 of the entries above.
ANKMY2 — TNF reporter robust z-score: -0.08; activity call: inactive
ANKMY2 — TNF reporter robust z-score: -0.49; activity call: inactive
ANKMY2 — TNF reporter robust z-score: 0.7; activity call: inactive
